Measurements reported in PubChem BioAssay AID504764 (Drosophila RNAi Screening Center, 2011).
Test: 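Genes whose knock-down alters Notch-dependent transcription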 (primary screen). Cells: Drosophila Kc167 cells. Reagent: long dsRNA against Drosophila genes. Duration: about 5 days (4 days dsRNA, then 24 h after transfection). Conditions: transfection of constitutively active membrane-tethered Notch lacking the extracellular domain, read 24 h later. Detection: 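Firefly luciferase from an E(spl)m3 reporter with active Notch, plus control-promoter and uninduced reporter wells for normalisation; unnormalised counts, duplicate wells a and b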. Scale: induced reporter light, run 1, well a and induced reporter light, run 1, well b: higher = more light from the Notch target reporter with active Notch; control promoter light, run 1, well a and control promoter light, run 1, well b: higher = more light from the viral control promoter (cell number, transfection, viability); uninduced reporter light, run 1, well a: higher = more light from the Notch target reporter without active Notch. Active means: 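Wells with low control signal or poorly matching duplicates excluded; duplicates averaged; per source plate, z beyond ±2 for induced/control log2 ratio or beyond ±1.8 for induced/uninduced marks a hit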. Calls: active = modifier hit (raised or lowered Notch signal); inactive = not a hit.
In all, the deposit lists about 22,000 reagents; shown is an unselected part of those with a known target gene and a result. Over the whole deposit, 403 (1.9%) are marked active. 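Unnormalised raw counts per well; ratio z-scores behind the hit calls and whether each hit raises or lowers signal are not deposited.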 A plus sign joins genes that one reagent is predicted to hit. Reagent sequences are not shown. Not stated in the record: the amount of reagent.

predicted target | DRSC id | induced reporter light, run 1, well a | induced reporter light, run 1, well b | control promoter light, run 1, well a | control promoter light, run 1, well b | uninduced reporter light, run 1, well a | Outcome
CG7299 | DRSC03043 | 1.91e5 | 2.19e5 | 1.27e5 | 1.85e5 | 24770 | inactive
CG5180 | DRSC15731 | 1.97e5 | 1.94e5 | 1.99e5 | 2.12e5 | 15160 | inactive
Bfc (Booster for Crq) | DRSC08623 | 99280 | 1.11e5 | 1.82e5 | 1.52e5 | 6715 | inactive
lncRNA:Hsromega (Heat shock RNA omega) | DRSC22875 | – | – | – | – | – | active
Grl65a (Gustatory receptor-like 65a) | DRSC08837 | 2.54e5 | 2.08e5 | 2.40e5 | 2.59e5 | 16460 | inactive
mys (myospheroid) | DRSC18799 | 1.39e5 | 1.18e5 | 2.69e5 | 2.30e5 | 9530 | inactive
Pgi (Phosphoglucose isomerase) | DRSC07507 | 1.71e5 | 1.42e5 | 1.48e5 | 1.40e5 | 14965 | inactive
Argl + CG9515 | DRSC03243 | 2.84e5 | 2.95e5 | 3.13e5 | 3.17e5 | 26545 | inactive
Argl + CG9515 | DRSC03245 | 90900 | 1.17e5 | 81490 | 1.02e5 | 17550 | inactive
vap (vacuolar peduncle) | DRSC20275 | 1.73e5 | 1.53e5 | 1.80e5 | 1.74e5 | 11555 | inactive
CG14270 | DRSC17913 | 1.49e5 | 1.55e5 | 3.09e5 | 3.17e5 | 10788 | inactive
SmydA-6 (SET and MYND domain containing, arthropod-specific, member 6) | DRSC07341 | 82205 | 69645 | 78775 | 99455 | 6825 | inactive
CG8565 | DRSC20112 | 1.35e5 | 1.48e5 | 1.44e5 | 1.41e5 | 15105 | inactive
CG1835 | DRSC20560 | 1.02e5 | 1.11e5 | 1.23e5 | 1.30e5 | 12810 | inactive
CG42795 | DRSC12772 | 2.08e5 | 1.92e5 | 1.83e5 | 2.65e5 | 13560 | inactive
CG42795 | DRSC15533 | 1.12e5 | 85800 | 89605 | 66335 | 6528 | inactive
CG18231 | DRSC10307 | 1.26e5 | 1.54e5 | 1.63e5 | 1.82e5 | 9695 | inactive
betaNACtes3 (Nascent-associated complex beta-subunit-like, testis 3) | DRSC20183 | 82915 | 79800 | 1.06e5 | 90585 | 12890 | inactive
gl (glass) | DRSC16957 | 1.68e5 | 1.32e5 | 1.81e5 | 1.86e5 | 12125 | inactive
CG31909 | DRSC22180 | – | – | – | – | – | inactive

Already shown: 2 of the entries above.
predicted target | DRSC id | induced reporter light, run 1, well a | induced reporter light, run 1, well b | control promoter light, run 1, well a | control promoter light, run 1, well b | uninduced reporter light, run 1, well a | Outcome
mys (myospheroid) | DRSC18799 | 1.39e5 | 1.18e5 | 2.69e5 | 2.30e5 | 9530 | inactive
Pgi (Phosphoglucose isomerase) | DRSC07507 | 1.71e5 | 1.42e5 | 1.48e5 | 1.40e5 | 14965 | inactive
